A short description of this data set: peptide synthesis. The settings on record: late stage modification step.

Consider one substance from US6790942 (dated 2004).

For the substance “Nps-Thr(tBu)-Ser(tBu)-Asp(OtBu)-Tyr(tBu)-Ser(tBu)-Lys-(Boc)-Tyr(tBu)-Leu-Asp(OtBu)-OH”, the step yield was 90%.
